Values from PubChem BioAssay AID493246 (Drosophila RNAi Screening Center, 2011).
Assay: 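Genes fly cells need to grow and stay alive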 (primary screen). System: Drosophila Kc and S2R+ cells. Reagents: long dsRNA against Drosophila genes. Read-out: 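Cell number per well after knock-down, printed as raw plate values; calls were based on per-plate z-scores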. Direction: Kc cell number and S2R+ cell number: higher = more cells remaining. Active means: 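Counted as a hit if cell number falls by a z-score of at least 3 within its plate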.
The deposit covers about 21,000 reagents; below is an unselected part of those with a known target gene and a result. Of all reagents, 429 (2%) are marked active. 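Values are raw and not normalised between plates; calls rest on per-plate z-scores that were not deposited.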 Names joined by + are all predicted targets of the reagent. Not stated in the record: the amount of reagent, the time to read-out.

Gene	amplicon	Kc cell number, rep 1	Kc cell number, rep 2	S2R+ cell number, rep 1	S2R+ cell number, rep 2	outcome
CG5762	DRSC15869	1.46e6	1.51e6	1.15e6	1.09e6	inactive
CG6654	DRSC16084	1.55e6	1.62e6	1.20e6	1.38e6	inactive
CG4313	DRSC18514	5.25e5		8.19e5		inactive
CG11231 (retired record)	DRSC17207	1.56e6	1.52e6	1.12e6	1.24e6	inactive
Ca-alpha1D (Ca[2+]-channel protein alpha[[1]] subunit D)	DRSC03284	1.35e6	1.38e6	1.35e6	1.37e6	inactive
CG4582	DRSC15605	1.58e6	1.50e6	9.87e5	1.10e6	inactive
Ns2 (Nucleostemin 2)	DRSC06993	1.16e6	1.30e6	1.02e6	9.71e5	inactive
CG9416	DRSC07339	1.66e6	1.75e6	1.35e6	1.55e6	inactive
Ranbp16	DRSC20160	1.57e6	1.55e6	1.15e6	1.26e6	inactive
CG34039	DRSC09318	1.44e6	1.59e6	1.10e6	1.34e6	inactive
CG5347	DRSC19942	1.47e6	1.51e6	1.09e6	1.15e6	inactive
CG33695 + cana	DRSC01163	1.49e6	1.50e6	7.55e5	8.60e5	active
CG33695 + cana	DRSC03503	1.56e6	1.68e6	1.35e6	1.48e6	inactive
CG34028	DRSC17614	1.27e6	1.48e6	1.09e6	1.08e6	inactive
Obp47a (Odorant-binding protein 47a)	DRSC06255	1.78e6	1.68e6	1.33e6	1.55e6	inactive
CG17944	DRSC12572	1.53e6	1.67e6	1.25e6	1.31e6	inactive
CG4119	DRSC17741	5.02e5		6.94e5		inactive
Sec61beta (Sec61 beta subunit)	DRSC07548	1.60e6	1.78e6	1.03e6	1.18e6	inactive
Prosalpha1R + Prosalpha1	DRSC07515	1.04e6	1.14e6	6.43e5	7.40e5	inactive
CG8353	DRSC03084	1.44e6	1.58e6	1.06e6	1.26e6	inactive
Sps1 (Selenophosphate synthetase 1)	DRSC07549	1.37e6	1.39e6	1.18e6	1.21e6	inactive
CG10651	DRSC02086	1.47e6	1.56e6	1.31e6	3.36e5	inactive
eyg (eyegone)	DRSC11344	7.18e5	8.75e5	5.20e5	6.39e5	active
FMRFaR (FMRFamide Receptor)	DRSC08555	1.24e6	1.36e6	1.11e6	1.28e6	inactive
seq (sequoia)	DRSC06863	1.55e6	1.47e6	9.92e5	1.07e6	inactive
Osi3 (Osiris 3)	DRSC12175	1.59e6	1.55e6	1.35e6	1.46e6	inactive
SWIP (Strumpellin and WASH-interacting protein)	DRSC19540	1.46e6	1.44e6	1.15e6	1.26e6	inactive
CG10874	DRSC00297	1.65e6	1.66e6	1.09e6	1.18e6	inactive
Wbp2 (WW domain binding protein 2)	DRSC09821	1.41e6	1.52e6	1.21e6	1.26e6	inactive
SdhA (Succinate dehydrogenase, subunit A (flavoprotein))	DRSC07547	1.36e6	1.43e6	1.16e6	1.15e6	inactive
slpr (slipper)	DRSC18225	5.50e5		8.45e5		inactive
mthl8 (methuselah-like 8)	DRSC08211	1.50e6	1.50e6	1.24e6	1.23e6	inactive
mthl8 (methuselah-like 8)	DRSC08311	1.26e6	1.25e6	9.90e5	1.30e6	inactive
SrpRalpha (Signal recognition particle receptor alpha)	DRSC20251	5.94e5		7.71e5		inactive
CG6432	DRSC16039	1.45e6	1.55e6	1.13e6	1.17e6	inactive
Mks1 (Meckel syndrome, type 1)	DRSC19697	1.59e6	1.62e6	1.13e6	1.28e6	inactive
gro (groucho)	DRSC16962	5.74e5		7.77e5		inactive

Continued (7 carried over from the part before).
Gene	amplicon	Kc cell number, rep 1	Kc cell number, rep 2	S2R+ cell number, rep 1	S2R+ cell number, rep 2	outcome
slpr (slipper)	DRSC18225	5.50e5		8.45e5		inactive
mthl8 (methuselah-like 8)	DRSC08211	1.50e6	1.50e6	1.24e6	1.23e6	inactive
mthl8 (methuselah-like 8)	DRSC08311	1.26e6	1.25e6	9.90e5	1.30e6	inactive
SrpRalpha (Signal recognition particle receptor alpha)	DRSC20251	5.94e5		7.71e5		inactive
CG6432	DRSC16039	1.45e6	1.55e6	1.13e6	1.17e6	inactive
Mks1 (Meckel syndrome, type 1)	DRSC19697	1.59e6	1.62e6	1.13e6	1.28e6	inactive
gro (groucho)	DRSC16962	5.74e5		7.77e5		inactive
Fmo-2 (Flavin-containing monooxygenase 2)	DRSC04983	1.27e6	1.34e6	1.14e6	1.18e6	inactive
CG34393	DRSC00419	1.52e6	1.55e6	1.18e6	1.35e6	inactive
CG34393	DRSC00710	1.54e6	1.48e6	1.18e6	1.33e6	inactive
CG32248	DRSC08102	1.58e6	1.61e6	1.08e6	1.29e6	inactive
Chd3	DRSC11114	1.54e6	1.90e6	1.15e6	1.32e6	inactive
sNPF-R (short neuropeptide F receptor)	DRSC10836	1.51e6	1.63e6	1.36e6	1.37e6	inactive
CG4270	DRSC00648	1.53e6	1.56e6	1.11e6	1.21e6	inactive
CG31817	DRSC01537	1.47e6	1.50e6	1.00e6	1.23e6	inactive
CG31817	DRSC01538	1.64e6	1.78e6	1.07e6	1.22e6	inactive
PIP82	DRSC18694	1.74e6	1.77e6	1.14e6	1.29e6	inactive
CG4955	DRSC19927	1.57e6	1.62e6	1.10e6	1.18e6	inactive
Prosbeta2R1 (Proteasome beta2 subunit-related 1)	DRSC18154	1.46e6	1.44e6	1.03e6	1.14e6	inactive
Mo25	DRSC11224	1.50e6	1.59e6	1.17e6	1.21e6	inactive
Nmdar1 (NMDA receptor 1)	DRSC12071	1.38e6	1.53e6	1.09e6	1.22e6	inactive
Nmdar1 (NMDA receptor 1)	DRSC12356	1.45e6	1.57e6	1.29e6	1.39e6	inactive
Hexo2 (Hexosaminidase 2)	DRSC18671	1.62e6	1.57e6	1.14e6	1.27e6	inactive
Sdb (SAXO downstream of blistered)	DRSC06272	1.73e6	1.65e6	1.28e6	1.49e6	inactive
Sdb (SAXO downstream of blistered)	DRSC06273	1.83e6	1.73e6	1.34e6	1.52e6	inactive
Sdb (SAXO downstream of blistered)	DRSC07155	1.49e6	1.53e6	1.14e6	1.20e6	inactive
CG32219	DRSC09641	1.32e6	1.55e6	1.08e6	1.31e6	inactive
TMEM216 + CG11760	DRSC14375	1.74e6	1.85e6	1.48e6	1.48e6	inactive
TM9SF4 (Transmembrane 9 superfamily protein member 4)	DRSC01888	1.28e6	1.27e6	1.34e6	1.19e6	inactive
TM9SF4 (Transmembrane 9 superfamily protein member 4)	DRSC02537	1.54e6	1.64e6	1.20e6	1.30e6	inactive
